Experimental data: PubChem BioAssay AID1159578 (Peter MacCallum Cancer Centre, 2015)
Assay: 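Knock-downs that alter how fast lymphatic endothelial cells migrate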 (primary screen). Cells: human lymphatic endothelial cells. Knock-down reagent: siRNA pool against human genes, 40 nM. Timing: 48 h after transfection. Detection: 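Cells stained with dye and imaged after a scratch; covered wound area and nuclei counted, duplicates averaged, migration set against mock wells and turned into a robust z-score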. Reading the numbers: migration robust z-score: higher = faster migration into the scratch; nuclei per well: higher = more cells in the well. Rule for the call: 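Pools averaging fewer than 3300 nuclei are never called; remaining pools count as changed when migration robust z lies outside -2 to 2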. Meaning of the calls: active = migration changed; inactive = no migration change, or too few cells.
This is a random part of about 18,000 reagents tested. In the full data, about 1,030 (5.7%) got an active call. 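Inactive calls also include pools with fewer than 3300 nuclei, whose migration was not assessed.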 Raw values are not corrected between plates. Unmarked entries are inactive. Not all columns of the deposit are shown. Reagent sequences are not shown.

SLCO6A1 — migration robust z-score = 0.13; nuclei per well, duplicate mean = 6958
PNMA1 (PNMA family member 1) — migration robust z-score = 0.72; nuclei per well, duplicate mean = 5299
IMP3 (IMP U3 small nucleolar ribonucleoprotein 3) — migration robust z-score = -1.23; nuclei per well, duplicate mean = 5968
IER3IP1 (immediate early response 3 interacting protein 1) — migration robust z-score = -0.01; nuclei per well, duplicate mean = 6784
CSRNP1 (cysteine and serine rich nuclear protein 1) — migration robust z-score = -0.18; nuclei per well, duplicate mean = 5526
PRY (PTPN13 like Y-linked) — migration robust z-score = -4.31; nuclei per well, duplicate mean = 2124
PGA3 (pepsinogen A3) — migration robust z-score = -0.2; nuclei per well, duplicate mean = 5084
PAGE4 (PAGE family member 4) — migration robust z-score = -1.07; nuclei per well, duplicate mean = 3785
PHF8 (PHD finger protein 8) — migration robust z-score = 0.8; nuclei per well, duplicate mean = 6428
PHOX2B (paired like homeobox 2B) — migration robust z-score = -0.7; nuclei per well, duplicate mean = 5943
C10orf120 (chromosome 10 open reading frame 120) — migration robust z-score = 1.29; nuclei per well, duplicate mean = 5932
ZNF460 (zinc finger protein 460) — migration robust z-score = -1.54; nuclei per well, duplicate mean = 7076

Already shown: entries from further up.
PHF8 (PHD finger protein 8) — migration robust z-score = 0.8; nuclei per well, duplicate mean = 6428
PHOX2B (paired like homeobox 2B) — migration robust z-score = -0.7; nuclei per well, duplicate mean = 5943
